42 sequences from publication PMC7819943, “Rice protein-binding microarrays: a tool to detect cis-acting elements near promoter regions in rice” can be followed below.

Chains of the proteins cited; added tags and fusions are not shown.
UniProt Q0JBA9, entry or part of it: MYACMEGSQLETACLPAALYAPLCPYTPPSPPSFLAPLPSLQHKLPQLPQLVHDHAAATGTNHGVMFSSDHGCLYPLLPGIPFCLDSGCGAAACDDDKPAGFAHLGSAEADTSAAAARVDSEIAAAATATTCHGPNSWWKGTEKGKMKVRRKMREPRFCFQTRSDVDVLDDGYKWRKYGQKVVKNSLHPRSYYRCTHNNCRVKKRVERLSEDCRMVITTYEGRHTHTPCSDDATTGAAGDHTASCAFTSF

Some of the results follow.

The target of the assay is OsWRKY34 (Oryza sativa, UniProt Q0JBA9 1-250). Kind of assay: protein-binding microarray (RPBM); PBS, 2% BSA, 51.3 ng/ul salmon testes DNA, 50 uM zinc acetate, 200 nM TF, 25 C, 1 h; high values mean tight binding. As to conditions: protein: recombinant; tags: N-terminal polyhistidine and DsRed monomer fusion (pET32a); label: CyDye5-dUTP incorporated in the synthesized complementary strand; 3' TTTTT single-stranded linker to array surface; dsDNA, one strand shown. The gist of the method:
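An Axon 4000B scanner gave the binding signal as per-feature fluorescence intensity in arbitrary units. This followed washing of a custom Agilent array that had been incubated for 1 h at 25 °C with 200 nM protein in PBS, 2% BSA, salmon testes DNA and 50 µM zinc acetate. The proteins were transcription factors fused at the N-terminus to polyhistidine and DsRed, expressed in E. coli BL21-CodonPlus and purified on Ni–NTA.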
Take “TTTCTTTTTATAAAACCTTTTCAACTTTGTTTATTTCTTCCGGAGTCACCTAGTGCAG”: the binding signal was 9530 fluorescence intensity (a.u.).
The result for “CTTGCGCCTCTTCGCTGATCCTCTTTTGTTCAGCGGCTGCCGGAGTCACCTAGTGCAG” reads 10200 fluorescence intensity (a.u.).
As to “TGCCACCTCAAGGACTCGCCCTTGTCGTCGCCTTCGCCATCGGAGTCACCTAGTGCAG”, the binding signal is 13400 fluorescence intensity (a.u.).
The result for “TTCACCCACGTTTCTGCCCAACCCTCTCACCCTAGCTTAGCGGAGTCACCTAGTGCAG” reads 10800 fluorescence intensity (a.u.).
Turning to “AGATTTATAGTACTTGCTCTAAGGTATTGGCTCTTACTACCGGAGTCACCTAGTGCAG”, the binding signal is 9080 fluorescence intensity (a.u.).
For “CTTTGCCAATCCTAACATTATCTTATTTTTGCAACAGTAACGGAGTCACCTAGTGCAG” the value was 11900 fluorescence intensity (a.u.).
The result for “CCTTGTCTAGTCCACTACACTACACTGCAATACGGCAATGCGGAGTCACCTAGTGCAG” reads 8900 fluorescence intensity (a.u.); that for “TGACCAAATTTCAGTACGCCAACCATTTGCAGTTGTTTTTCGGAGTCACCTAGTGCAG”, 8270 fluorescence intensity (a.u.).
Take “GCCGCGCGTTACCGCCGATCTCCATCCCGATGCCCCACTCCGGAGTCACCTAGTGCAG”: the binding signal was 8090 fluorescence intensity (a.u.).
For “ACCTTGTCATCTTCCTCATCTTCGACAGCTCCTCGCATGCCGGAGTCACCTAGTGCAG” the value was 8570 fluorescence intensity (a.u.); for “CTTCTCAAAATCTGCTCAACCACAGTCCTAATTTCTATAGCGGAGTCACCTAGTGCAG”, 9160 fluorescence intensity (a.u.).
For “TGGCGGTGGCGTTGGAGGAGGGTTTGGTGGCGGAAAAGGTCGGAGTCACCTAGTGCAG” the value was 10300 fluorescence intensity (a.u.); for “CTCTCTGTCCCTGCAAACACGCTTCCTGCCTCCTCTCATTCGGAGTCACCTAGTGCAG”, 8590 fluorescence intensity (a.u.); for “ATAAGAGAATTCAATTTTTTTTACTGCGTCACATAATTTTCGGAGTCACCTAGTGCAG”, 8480 fluorescence intensity (a.u.).
The result for “TTCCTTTTGTGTTGTTTCCCTTTCAGTTTCATCTTTTGCTCGGAGTCACCTAGTGCAG” reads 8110 fluorescence intensity (a.u.); that for “GTGAGCTCCACGCGCCTATATCTATCCCTTTCTATCACCTCGGAGTCACCTAGTGCAG”, 8100 fluorescence intensity (a.u.); that for “GCCGCCGCGGCCATCCCGCTCATCGACCTCGCCAAGGCCGCGGAGTCACCTAGTGCAG”, 9830 fluorescence intensity (a.u.).
Consider “ATGTACTAAAAAGTCAACGGTGTCAAACATTTTGAAACGGCGGAGTCACCTAGTGCAG”, for which the binding signal is 12600 fluorescence intensity (a.u.).
With “TCATACTATTATATTCTATGCTCTGGATCTACACATATGTCGGAGTCACCTAGTGCAG”, the binding signal was 10100 fluorescence intensity (a.u.).
The result for “GCAGACCATCAAATGCGAGCATCCATTCTTTGTCTGGATTCGGAGTCACCTAGTGCAG” reads 10300 fluorescence intensity (a.u.); that for “TCTTCTACTCCCTCCGCCCCAAATTAGTTGTCTCTTTAGGCGGAGTCACCTAGTGCAG”, 8160 fluorescence intensity (a.u.); that for “GGGATTTCCATCGTTTTGGGTTGGCATATCTACGAATAAGCGGAGTCACCTAGTGCAG”, 8620 fluorescence intensity (a.u.).
For “ACCTTTCATTTGTGGCGCATTAAACATTGGTATCTAACATCGGAGTCACCTAGTGCAG” the value was 9070 fluorescence intensity (a.u.); for “CCTATTTTACCCTCAACTATCTTCCCACTCTCACATAAACCGGAGTCACCTAGTGCAG”, 8620 fluorescence intensity (a.u.); for “ACTTTTGGCTGCCACAGTTTGTTAGACATGTGTTTGGTTCCGGAGTCACCTAGTGCAG”, 12300 fluorescence intensity (a.u.).
For “CCCAAAGTCCACACAAACTTTCGATTCGATTTCTCCGATCCGGAGTCACCTAGTGCAG” the value was 8100 fluorescence intensity (a.u.).
For “AAGCGCCGACTCTTGTTCACATACATCACAACCTCACGCGCGGAGTCACCTAGTGCAG”, the binding signal was 11100 fluorescence intensity (a.u.).
For “GGGATGCAGTTTAGGTTTTGCGTTATTCCTTTTCTGTTCCCGGAGTCACCTAGTGCAG” the value was 9720 fluorescence intensity (a.u.); for “GATAGCTCTCTGTTCTTGCATTGGTTTTGCTTCCCTCTGCCGGAGTCACCTAGTGCAG”, 8540 fluorescence intensity (a.u.).
For “GAGAGAGTACTTCTTCTTCCAACGTCGTAGTCTTTTCAATCGGAGTCACCTAGTGCAG” the value was 9540 fluorescence intensity (a.u.).
As to “TACCTACCTACACCCGCCCACCCCGTCCACCGCGCCACTACGGAGTCACCTAGTGCAG”, the binding signal was 9620 fluorescence intensity (a.u.).
The result for “TTGTTGGGTGCTGAATTGCTGATGTGGTGGGGTGACATGACGGAGTCACCTAGTGCAG” reads 12500 fluorescence intensity (a.u.); that for “ACCCCGAGCTCTTCCTCGCCTCGCCGATCGCCGCGCCGCTCGGAGTCACCTAGTGCAG”, 9900 fluorescence intensity (a.u.).
For “CGTATCACTGTAGCCCAATCACGACATATTATCATCTACTCGGAGTCACCTAGTGCAG” the value was 9980 fluorescence intensity (a.u.); for “CCTTCTCCACTCTTCTTCTCAAATCCTCTCTCTTCCTCTTCGGAGTCACCTAGTGCAG”, 9160 fluorescence intensity (a.u.); for “GCCCCAGCCGCCGCCACCGCCGCCGCCGCCGTCCTCCATGCGGAGTCACCTAGTGCAG”, 9520 fluorescence intensity (a.u.).
For “CTTATCCCCGTTTGTTTAACTTCTCATTATTTATGCTCCGCGGAGTCACCTAGTGCAG” the value was 9050 fluorescence intensity (a.u.); for “TCATATCCGCAGCCTTGTTCTTGCTGTTCTCACTAATCAACGGAGTCACCTAGTGCAG”, 9580 fluorescence intensity (a.u.).
Regarding “ATTAGTAGGCTACACATGTTCTTCCTTTGTTTATCTAGTTCGGAGTCACCTAGTGCAG”, the binding signal was 9930 fluorescence intensity (a.u.).
For “GCCCGTCGCTCCAGCAGCTGCCACCCGCGCGCGCCGCCGCCGGAGTCACCTAGTGCAG” the value was 10700 fluorescence intensity (a.u.); for “GGGTTTTGGAGTGGTGGTGGTGGAGGATTGGAGTTGGGGTCGGAGTCACCTAGTGCAG”, 11600 fluorescence intensity (a.u.).
The result for “GCTTTTACTCTGCTTCCTCTGTCTCACTCGCTGCTCTGTACGGAGTCACCTAGTGCAG” reads 12300 fluorescence intensity (a.u.).
